Measurements published in patent publication US7662584, “Increased production of secreted proteins by recombinant eukaryotic cells” (Danisco US Inc.).
Construct, isoform or probe ends are uncertain for at least one entry. No signal at the amounts used counts as a negative.

Biological target: malE (maltose-binding protein) (Escherichia coli) (UniProt P0AEX9)
Test: EMSA
Conditions: malE alone control, 2 ug; probe assigned from pdi1 promoter UPR element area; purified recombinant protein; protein details: pMAL system, New England Biolabs; label: 32P-dCTP Klenow fill-in

Q: Does “CGGCTGAACCAGCGCGGCAGCCAGATGTGGCCAAAGGG (double strand) [pdiUPREI+II]” bind?
A: no binding
